In article PMC7532686:
These are yes or no findings as the source states them, for the method shown. Binding seen in cells or lysates may run through a third protein. Some results given as binding are weak or reduced against the parent protein; the word gives no strength.

Target: T1, Cysteine-rich protein 2 (CSRP2) (UniProt Q16527)
T1 sequence: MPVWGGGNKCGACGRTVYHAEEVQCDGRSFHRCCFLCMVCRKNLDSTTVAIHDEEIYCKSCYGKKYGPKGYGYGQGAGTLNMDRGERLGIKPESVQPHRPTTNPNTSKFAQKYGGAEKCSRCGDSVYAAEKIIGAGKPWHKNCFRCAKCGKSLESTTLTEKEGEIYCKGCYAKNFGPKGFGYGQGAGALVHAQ
Assay: co-IP; HCT116/CSRP2 cells lysed in cold RIPA buffer; anti-CSRP2 (or anti-p130Cas) antibody overnight at 4 °C, captured on protein A beads; SDS-PAGE and Western blot

binding: binds
B1: p130Cas (protein, UniProt P56945 1-870)
chain: MNHLNVLAKALYDNVAESPDELSFRKGDIMTVLEQDTQGLDGWWLCSLHGRQGIVPGNRLKILVGMYDKKPAGPGPGPPATPAQPQPGLHAPAPPASQYTPMLPNTYQPQPDSVYLVPTPSKAQQGLYQVPGPSPQFQSPPAKQTSTFSKQTPHHPFPSPATDLYQVPPGPGGPAQDIYQVPPSAGMGHDIYQVPPSMDTRSWEGTKPPAKVVVPTRVGQGYVYEAAQPEQDEYDIPRHLLAPGPQDIYDVPPVRGLLPSQYGQEVYDTPPMAVKGPNGRDPLLEVYDVPPSVEKGLPPSNHHAVYDVPPSVSKDVPDGPLLREETYDVPPAFAKAKPFDPARTPLVLAAPPPDSPPAEDVYDVPPPAPDLYDVPPGLRRPGPGTLYDVPRERVLPPEVADGGVVDSGVYAVPPPAEREAPAEGKRLSASSTGSTRSSQSASSLEVAGPGREPLELEVAVEALARLQQGVSATVAHLLDLAGSAGATGSWRSPSEPQEPLVQDLQAAVAAVQSAVHELLEFARSAVGNAAHTSDRALHAKLSRQLQKMEDVHQTLVAHGQALDAGRGGSGATLEDLDRLVACSRAVPEDAKQLASFLHGNASLLFRRTKATAPGPEGGGTLHPNPTDKTSSIQSRPLPSPPKFTSQDSPDGQYENSEGGWMEDYDYVHLQGKEEFEKTQKELLEKGSITRQGKSQLELQQLKQFERLEQEVSRPIDHDLANWTPAQPLAPGRTGGLGPSDRQLLLFYLEQCEANLTTLTNAVDAFFTAVATNQPPKIFVAHSKFVILSAHKLVFIGDTLSRQAKAADVRSQVTHYSNLLCDLLRGIVATTKAAALQYPSPSAAQDMVERVKELGHSTQQFRRVLGQLAAA
